Consider three compounds from paper PMC11527973, “Efficient characterization of multiple binding sites of small molecule imaging ligands on amyloid-beta, tau and alpha-synuclein” (European Journal of Nuclear Medicine and Molecular Imaging, 2024).

Some entries repeat one wording, which the source may state once for all of them.

The test system of this series is Aβ deposits (6E10 positive). In words: Immunofluorescence staining and colocalization, arcAβ mouse brain. Particulars: for M1, fraction of A overlapping B / M2, fraction of B overlapping A: Manders' coefficient, arcAβ mouse, antibody (A) 6E10, ligand (B); for Ligand detection of Aβ deposits: arcAβ mice, cortical regions, costained with 6E10.

In the case of `O=C(O)Cc1cc(-c2ccc(-c3cc(CC(=O)O)c(-c4ccc(C(=O)O)s4)s3)s2)sc1-c1ccc(C(=O)O)s1` [HS-84], the “M1, fraction of A overlapping B” value is listed as 0.607 and the “M2, fraction of B overlapping A” value is recorded as 0.6.
For `O=C(O)Cc1cc(-c2ccc(-c3cc(CC(=O)O)c(-c4ccc(C(=O)O)s4)s3)c3nsnc23)sc1-c1ccc(C(=O)O)s1` [HS-169], the “M1, fraction of A overlapping B” value is given as 0.658; the “M2, fraction of B overlapping A” value is listed as 0.462; the “Ligand detection of Aβ deposits” value is given as “confirmed the detection of parenchymal Aβ deposits”.
As to `O=C(O)Cc1cc(-c2ccc(-c3ccc(C(=O)O)s3)s2)sc1-c1ccc(-c2sc(-c3ccc(-c4ccc(C(=O)O)s4)s3)cc2CC(=O)O)s1` [h-FTAA, Hepta-formylthiophene acetic acid], the “M1, fraction of A overlapping B” value was found to be 0.553; the “M2, fraction of B overlapping A” value was found to be 0.425; the “Ligand detection of Aβ deposits” value was “confirmed the detection of parenchymal Aβ deposits”.
